# At least one compound was matched to its structure with a doubt left.
# Tested on: Murine sarcoma 180 cells
# Assay: Cancer bearing mice life prolongation test
# Assay type: in vivo, C57BL/6J mice
# Conditions: oral, lifetime or up to 120 days
# Text: Fifty (50) C57BL/6J mice weighing 18-22 g, without sex discrimination, were randomly assigned to one control group and four treatment groups, each with 10 animals. Murine sarcoma 180 cells were intraperitoneally transplanted to the mice. 20(S)-Rh2 was provided by Shenyang Pegasus Pharmaceutical R&D Co., China, with a purity of over 98%. The molecular weight for Rh2 was 622.3. The novel sapogenin PAM-120 was derived from the process described in Example 2 according to this invention. The molecular weight of PAM-120 was 442.7, and the purity for PAM-120 was higher than 99%. The drugs were prepared into a suspension form respectively. The mice were weighed daily prior to drug administration to determine the actual measurement of drug administered. Drug administration started from 24 hours post tumor inoculation. […] For each group, the days of survival for 50% animals (DS50) and the average days of survival (ADS) were recorded. For groups containing one or more animals that could have lived longer than 120 days (the designed sacrifice day was d 120), the ADS would be so calculated that these animals were counted as if they had died on day 120, and a note would be made. The life prolongation rate (LPR) was calculated with the following formula: [formula] […]
smiles,measurement,setting,value
"CC(C)=CCC[C@](C)(O)[C@H]1CC[C@]2(C)[C@@H]1[C@H](O)C[C@@H]1[C@@]3(C)CC[C@H](O[C@@H]4O[C@H](CO)[C@@H](O)[C@H](O)[C@H]4O)C(C)(C)[C@@H]3CC[C@]12C [Rh2, 3-O-β-D-glucopyranosyl-20(s)-protopanaxadiol, reference compound]",ADS (M ∓ SD) average days of survival,10 mg/kg daily,24.7 ∓ 12.6 days
same,ADS (M ∓ SD) average days of survival,25 mg/kg daily,44.3 ∓ 19.6 days

# — patent publication US6888014B2, “Dammarane sapogenins, their use as anti-cancer agents, and a process for producing same” (PanaGin Pharmaceuticals Inc., priority 2001, dated 2005)
